Reference: article PMC6622005
No constants are given. Whether binding was seen depends on the method and setting. Binding seen in cells or lysates may run through a third protein. Some results given as binding are weak or reduced against the parent protein; the word gives no strength.

Amino acid sequences for entries named in this document (tags omitted).
UniProt O95758: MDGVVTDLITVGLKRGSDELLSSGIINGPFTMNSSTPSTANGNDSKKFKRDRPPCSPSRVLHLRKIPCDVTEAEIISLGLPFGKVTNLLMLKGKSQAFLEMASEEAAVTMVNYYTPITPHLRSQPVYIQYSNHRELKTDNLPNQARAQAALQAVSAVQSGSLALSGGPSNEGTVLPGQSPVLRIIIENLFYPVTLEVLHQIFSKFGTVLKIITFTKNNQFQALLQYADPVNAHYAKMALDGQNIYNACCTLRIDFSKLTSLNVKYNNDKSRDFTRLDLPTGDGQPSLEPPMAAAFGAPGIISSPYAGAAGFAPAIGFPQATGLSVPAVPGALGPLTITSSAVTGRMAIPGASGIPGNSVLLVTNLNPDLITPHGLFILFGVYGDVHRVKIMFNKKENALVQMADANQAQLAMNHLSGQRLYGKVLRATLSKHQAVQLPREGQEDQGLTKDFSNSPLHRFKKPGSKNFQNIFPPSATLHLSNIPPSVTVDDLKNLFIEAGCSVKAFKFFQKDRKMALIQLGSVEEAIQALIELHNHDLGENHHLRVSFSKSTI
UniProt P67809: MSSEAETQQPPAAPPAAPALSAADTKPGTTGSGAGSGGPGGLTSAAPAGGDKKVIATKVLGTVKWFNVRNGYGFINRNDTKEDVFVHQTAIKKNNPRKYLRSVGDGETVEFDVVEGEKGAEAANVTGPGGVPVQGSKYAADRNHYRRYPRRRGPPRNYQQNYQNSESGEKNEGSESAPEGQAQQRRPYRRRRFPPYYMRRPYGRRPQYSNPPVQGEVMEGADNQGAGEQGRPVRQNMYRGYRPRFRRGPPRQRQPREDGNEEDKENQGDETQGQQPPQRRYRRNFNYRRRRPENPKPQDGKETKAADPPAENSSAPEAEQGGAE

Target: Polypyrimidine tract-binding protein 3 (PTBP3), Flag-tagged (human) (UniProt O95758)
Assay: co-IP; IP and Western blot; precipitated protein, cell line and conditions not stated

binding | Molecule
binds | YBX1 (from UniProt P67809 1-324)
binds | HNRNPM (protein, UniProt P52272 1-730) MAAGVEAAAEVAATEIKMEEESGAPGVPSGNGAPGPKGEGERPAQNEKRKEKNIKRGGNRFEPYANPTKRYRAFITNIPFDVKWQSLKDLVKEKVGEVTYVELLMDAEGKSRGCAVVEFKMEESMKKAAEVLNKHSLSGRPLKVKEDPDGEHARRAMQKVMATTGGMGMGPGGPGMITIPPSILNNPNIPNEIIHALQAGRLGSTVFVANLDYKVGWKKLKEVFSMAGVVVRADILEDKDGKSRGIGTVTFEQSIEAVQAISMFNGQLLFDRPMHVKMDERALPKGDFFPPERPQQLPHGLGGIGMGLGPGGQPIDANHLNKGIGMGNIGPAGMGMEGIGFGINKMGGMEGPFGGGMENMGRFGSGMNMGRINEILSNALKRGEIIAKQGGGGGGGSVPGIERMGPGIDRLGGAGMERMGAGLGHGMDRVGSEIERMGLVMDRMGSVERMGSGIERMGPLGLDHMASSIERMGQTMERIGSGVERMGAGMGFGLERMAAPIDRVGQTIERMGSGVERMGPAIERMGLSMERMVPAGMGAGLERMGPVMDRMATGLERMGANNLERMGLERMGANSLERMGLERMGANSLERMGPAMGPALGAGIERMGLAMGGGGGASFDRAIEMERGNFGGSFAGSFGGAGGHAPGVARKACQIFVRNLPFDFTWKMLKDKFNECGHVLYADIKMENGKSKGCGVVKFESPEVAERACRMMNGMKLSGREIDVRIDRNA
binds | UPF1 (protein, UniProt Q92900 1-1129) MSVEAYGPSSQTLTFLDTEEAELLGADTQGSEFEFTDFTLPSQTQTPPGGPGGPGGGGAGGPGGAGAGAAAGQLDAQVGPEGILQNGAVDDSVAKTSQLLAELNFEEDEEDTYYTKDLPIHACSYCGIHDPACVVYCNTSKKWFCNGRGNTSGSHIVNHLVRAKCKEVTLHKDGPLGETVLECYNCGCRNVFLLGFIPAKADSVVVLLCRQPCASQSSLKDINWDSSQWQPLIQDRCFLSWLVKIPSEQEQLRARQITAQQINKLEELWKENPSATLEDLEKPGVDEEPQHVLLRYEDAYQYQNIFGPLVKLEADYDKKLKESQTQDNITVRWDLGLNKKRIAYFTLPKTDSGNEDLVIIWLRDMRLMQGDEICLRYKGDLAPLWKGIGHVIKVPDNYGDEIAIELRSSVGAPVEVTHNFQVDFVWKSTSFDRMQSALKTFAVDETSVSGYIYHKLLGHEVEDVIIKCQLPKRFTAQGLPDLNHSQVYAVKTVLQRPLSLIQGPPGTGKTVTSATIVYHLARQGNGPVLVCAPSNIAVDQLTEKIHQTGLKVVRLCAKSREAIDSPVSFLALHNQIRNMDSMPELQKLQQLKDETGELSSADEKRYRALKRTAERELLMNADVICCTCVGAGDPRLAKMQFRSILIDESTQATEPECMVPVVLGAKQLILVGDHCQLGPVVMCKKAAKAGLSQSLFERLVVLGIRPIRLQVQYRMHPALSAFPSNIFYEGSLQNGVTAADRVKKGFDFQWPQPDKPMFFYVTQGQEEIASSGTSYLNRTEAANVEKITTKLLKAGAKPDQIGIITPYEGQRSYLVQYMQFSGSLHTKLYQEVEIASVDAFQGREKDFIILSCVRANEHQGIGFLNDPRRLNVALTRARYGVIIVGNPKALSKQPLWNHLLNYYKEQKVLVEGPLNNLRESLMQFSKPRKLVNTINPGARFMTTAMYDAREAIIPGSVYDRSSQGRPSSMYFQTHDQIGMISAGPSHVAAMNIPIPFNLVMPPMPPPGYFGQANGPAAGRGTPKGKTGRGGRQKNRFGLPGPSQTNLPNSQASQDVASQPFSQGALTQGYISMSQPSQMSQPGLSQPELSQDSYLGDEFKSQIDVALSQDSTYQGERAYQHGGVTGLSQY
